1 compound from patent US11931466B2, “Process for the preparation of drug loaded microparticles” (FERRING B.V., priority 2015, dated 2024) can be followed below.

The data set can be described thus: physchem. The settings on record: 20 °C, organic solvent or mixture.

Counter-ions that a name gives are not always drawn.

As usually defined, the solubility is the dissolved amount per volume that the medium holds.

Regarding `COc1cc2c(cc1OC)C(=O)C(CC1CCN(Cc3ccccc3)CC1)C2` (stereo not shown) [Donepezil hydrochloride], the solubility came out at 350 mg/mL.
